No constants are given. Whether binding was seen depends on the method and setting. In cells and extracts the contact can be indirect. Binding calls can cover weak binding; strength is not graded here.
Target: T1, Polycomb (PC) (Drosophila (endogenous in S2 cells)) (UniProt P26017)
T1 sequence: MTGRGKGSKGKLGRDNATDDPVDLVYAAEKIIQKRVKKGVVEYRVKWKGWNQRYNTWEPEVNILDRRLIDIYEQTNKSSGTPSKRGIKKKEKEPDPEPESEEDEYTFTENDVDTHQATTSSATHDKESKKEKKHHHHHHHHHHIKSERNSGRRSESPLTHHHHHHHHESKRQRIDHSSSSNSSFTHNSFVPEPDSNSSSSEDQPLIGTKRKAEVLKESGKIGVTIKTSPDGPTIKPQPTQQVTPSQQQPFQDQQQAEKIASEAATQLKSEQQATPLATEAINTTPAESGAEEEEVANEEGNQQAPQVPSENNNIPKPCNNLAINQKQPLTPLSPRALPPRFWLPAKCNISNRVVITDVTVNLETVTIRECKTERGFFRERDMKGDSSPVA
Experiment: co-IP

- binding: binds
Substance: FLAG-Tcp-1η (Drosophila)
